In the supplement of paper PMC7024190:
Where a name gives a salt, the structure may show the parent alone. The list shows a part of the results. Repeats in this data set agree poorly, so a single value says little.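 The cells were human embryonic kidney cells carrying a Renilla luciferase gene, driven by the HSV-TK promoter, on a plasmid put in briefly by transfection. This is the first-round screen of about ten thousand compounds, looking for ones that raise reporter output.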

system: HEK 293FT; test: log relative Renilla luciferase luminescence (reporter expression vs reference, reference not stated) (log (base not stated)); higher = higher recombinant reporter expression; conditions: 10 µM; time after transfection 48 h

Structure (SMILES)	log
O=C(O)Cc1cccc(OCCCN(Cc2cccc(C(F)(F)F)c2Cl)CC(c2ccccc2)c2ccccc2)c1 [GW 3965 hydrochloride]	0.00137
COC1CCC(C(=O)c2ccc3nc4c(cc3c2)CCCO4)CC1 (stereo not given)	-0.148
C=C1/C(=C\C=C2/CCC[C@]3(C)[C@@H]([C@H](C)/C=C/[C@@H](O)C4CC4)CC[C@@H]23)C[C@@H](O)C[C@@H]1O [Calcipotriol]	-0.0475
O=c1cc(N2CCNCC2)oc2c(-c3ccccc3)cccc12	-0.216
CCOC(=O)[C@H](CCc1ccccc1)N[C@@H](C)C(=O)N1Cc2cc(OC)c(OC)cc2C[C@H]1C(=O)O [Moexipril hydrochloride]	-0.0133
N#C/C(=C\c1ccc(O)c(O)c1)C(=O)OCCc1cccs1	0.0863
N[C@@H](Cc1cc(-c2ccc(Cl)cc2Cl)cc(CP(=O)(O)O)c1O)C(=O)O	0.00106
O=C(O)c1ccc(C=C2SC(=S)N(c3cccc(C(F)(F)F)c3)C2=O)cc1	-0.355
CCCc1c(OCC(O)COc2ccc3c(=O)cc(C(=O)O)oc3c2CCC)ccc(C(C)=O)c1O (stereo not given)	0.0191
CNCCC(Oc1ccccc1OC)c1ccccc1 (stereo not given) [Nisoxetine hydrochloride]	0.0701
CC(C)[C@H](NS(=O)(=O)c1ccc(-c2ccc(Br)cc2)cc1)C(=O)O	-0.222
NC(=O)CNCCC(c1ccccc1)c1ccccc1 [N20C hydrochloride]	0.023
CS(=O)(=O)CCNCc1nc(-c2ccc3ncnc(Nc4ccc(OCc5cccc(F)c5)c(Cl)c4)c3c2)cs1	0.027
O=c1cc(-c2cccc3c2Sc2ccccc2S3)oc(N2CCOCC2)c1	0.277
CC1(C)O[C@@H]2[C@@H](CO[C@@]3(COS(N)(=O)=O)OC(C)(C)O[C@@H]23)O1 [Topiramate]	-0.133
Nc1cc(N2CCCCC2)nc(N)[n+]1[O-] [Minoxidil]	0.028
Cn1cnnc1Sc1c([N+](=O)[O-])ncn1C	-0.024
O=c1[nH]nc(Sc2ncc([N+](=O)[O-])s2)n1-c1ccc2c(c1)OCCO2	0.0252
N#C/C(=C\c1ccc(O)c(O)c1)C(=O)NCCCCc1ccccc1	-0.309
CCC(=O)OCN1C(=O)C=CC1=O	-0.902

Structure (SMILES)	log
CN1CC2c3ccccc3Oc3ccc(Cl)cc3C2C1 (stereo not given) [Asenapine maleate]	-0.0734
N=C(N)NC(=O)c1nc(Cl)c(N)nc1N [Amiloride hydrochloride]	-0.0747
N#C/C(=C(/N)Sc1ccc(N)cc1)c1ccccc1C(F)(F)F	0.0106
COc1cc2ncnc(Nc3ccc(Cl)cc3F)c2cc1OC	-0.113
OCC1OC(n2cnc3c(NC4CCCC4)nc(Cl)nc32)C(O)C1O (stereo not given) [2-Chloro-N6-cyclopentyladenosine]	0.0512
Cc1nc2c(OCc3ccccc3)cccn2c1CC#N	0.0458
FC(F)(F)c1ccc(/C=C/c2nc(COc3ccc(CCCCn4ccnn4)cc3)co2)cc1	-1.38
Cc1ccc2c(=O)c3ccccc3n(CCCN)c2c1C	-0.721
COc1ccc2[nH]cc(CCNC(C)=O)c2c1 [Melatonin]	0.0363
O=C1C=CC(=O)C2=C1C1c3ccccc3C2c2ccccc21	-0.0863
CCCCc1nc2ccn(Cc3cccs3)c(=O)c2n1Cc1ccc(-c2ccccc2-c2nn[nH]n2)cc1	0.0438
O=[N+]([O-])c1cccc2cn[nH]c12 [7-Nitroindazole]	0.0438
Cc1ccc(C(=O)Cn2c3c(sc2=N)CCCC3)cc1 [Pifithrin- α hydrobromide]	-0.0416
CC(Oc1ccc(O)cc1)(P(=O)(O)O)P(=O)(O)O	0.088
COc1ccc(-n2[nH]c3c4c(ncc3c2=O)CCCCC4)cc1	-0.0739
Cc1ccc2c(c1)c1c3n2CCNC3CCC1 (stereo not given) [Pirlindole mesylate]	0.105
O=C(O)CCc1ccc(NCc2cccc(Oc3ccccc3)c2)cc1	-0.0364
CC(C)N(CCC(=O)c1ccc2ccccc2c1)Cc1ccccc1	-0.0512
NC(=O)N/N=C/c1ccc(Oc2ccc(F)cc2)cc1	-0.0547
CCCC[C@@H](C=O)NC(=O)[C@H](CC(C)C)NC(=O)OCc1ccccc1 [Calpeptin]	0.0747

Some values from the entries so far:
Value for NC(=O)CNCCC(c1ccccc1)c1ccccc1 [N20C hydrochloride] under log: 0.023
Value for CN1CC2c3ccccc3Oc3ccc(Cl)cc3C2C1 (stereo not given) [Asenapine maleate] under log: -0.0734
